Test results published in publication PMC12724372.

Amino acid sequences for entries named in this document (tags omitted).
UniProt P07355: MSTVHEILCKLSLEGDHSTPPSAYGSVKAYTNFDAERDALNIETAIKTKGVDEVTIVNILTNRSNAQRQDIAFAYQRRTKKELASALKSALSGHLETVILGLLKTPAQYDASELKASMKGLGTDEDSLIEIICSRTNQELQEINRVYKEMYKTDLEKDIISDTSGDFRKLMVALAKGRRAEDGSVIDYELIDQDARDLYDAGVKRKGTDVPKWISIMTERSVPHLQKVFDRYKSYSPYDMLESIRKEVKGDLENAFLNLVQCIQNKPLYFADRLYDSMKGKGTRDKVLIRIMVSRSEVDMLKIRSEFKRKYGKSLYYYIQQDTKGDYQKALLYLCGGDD
UniProt P35579: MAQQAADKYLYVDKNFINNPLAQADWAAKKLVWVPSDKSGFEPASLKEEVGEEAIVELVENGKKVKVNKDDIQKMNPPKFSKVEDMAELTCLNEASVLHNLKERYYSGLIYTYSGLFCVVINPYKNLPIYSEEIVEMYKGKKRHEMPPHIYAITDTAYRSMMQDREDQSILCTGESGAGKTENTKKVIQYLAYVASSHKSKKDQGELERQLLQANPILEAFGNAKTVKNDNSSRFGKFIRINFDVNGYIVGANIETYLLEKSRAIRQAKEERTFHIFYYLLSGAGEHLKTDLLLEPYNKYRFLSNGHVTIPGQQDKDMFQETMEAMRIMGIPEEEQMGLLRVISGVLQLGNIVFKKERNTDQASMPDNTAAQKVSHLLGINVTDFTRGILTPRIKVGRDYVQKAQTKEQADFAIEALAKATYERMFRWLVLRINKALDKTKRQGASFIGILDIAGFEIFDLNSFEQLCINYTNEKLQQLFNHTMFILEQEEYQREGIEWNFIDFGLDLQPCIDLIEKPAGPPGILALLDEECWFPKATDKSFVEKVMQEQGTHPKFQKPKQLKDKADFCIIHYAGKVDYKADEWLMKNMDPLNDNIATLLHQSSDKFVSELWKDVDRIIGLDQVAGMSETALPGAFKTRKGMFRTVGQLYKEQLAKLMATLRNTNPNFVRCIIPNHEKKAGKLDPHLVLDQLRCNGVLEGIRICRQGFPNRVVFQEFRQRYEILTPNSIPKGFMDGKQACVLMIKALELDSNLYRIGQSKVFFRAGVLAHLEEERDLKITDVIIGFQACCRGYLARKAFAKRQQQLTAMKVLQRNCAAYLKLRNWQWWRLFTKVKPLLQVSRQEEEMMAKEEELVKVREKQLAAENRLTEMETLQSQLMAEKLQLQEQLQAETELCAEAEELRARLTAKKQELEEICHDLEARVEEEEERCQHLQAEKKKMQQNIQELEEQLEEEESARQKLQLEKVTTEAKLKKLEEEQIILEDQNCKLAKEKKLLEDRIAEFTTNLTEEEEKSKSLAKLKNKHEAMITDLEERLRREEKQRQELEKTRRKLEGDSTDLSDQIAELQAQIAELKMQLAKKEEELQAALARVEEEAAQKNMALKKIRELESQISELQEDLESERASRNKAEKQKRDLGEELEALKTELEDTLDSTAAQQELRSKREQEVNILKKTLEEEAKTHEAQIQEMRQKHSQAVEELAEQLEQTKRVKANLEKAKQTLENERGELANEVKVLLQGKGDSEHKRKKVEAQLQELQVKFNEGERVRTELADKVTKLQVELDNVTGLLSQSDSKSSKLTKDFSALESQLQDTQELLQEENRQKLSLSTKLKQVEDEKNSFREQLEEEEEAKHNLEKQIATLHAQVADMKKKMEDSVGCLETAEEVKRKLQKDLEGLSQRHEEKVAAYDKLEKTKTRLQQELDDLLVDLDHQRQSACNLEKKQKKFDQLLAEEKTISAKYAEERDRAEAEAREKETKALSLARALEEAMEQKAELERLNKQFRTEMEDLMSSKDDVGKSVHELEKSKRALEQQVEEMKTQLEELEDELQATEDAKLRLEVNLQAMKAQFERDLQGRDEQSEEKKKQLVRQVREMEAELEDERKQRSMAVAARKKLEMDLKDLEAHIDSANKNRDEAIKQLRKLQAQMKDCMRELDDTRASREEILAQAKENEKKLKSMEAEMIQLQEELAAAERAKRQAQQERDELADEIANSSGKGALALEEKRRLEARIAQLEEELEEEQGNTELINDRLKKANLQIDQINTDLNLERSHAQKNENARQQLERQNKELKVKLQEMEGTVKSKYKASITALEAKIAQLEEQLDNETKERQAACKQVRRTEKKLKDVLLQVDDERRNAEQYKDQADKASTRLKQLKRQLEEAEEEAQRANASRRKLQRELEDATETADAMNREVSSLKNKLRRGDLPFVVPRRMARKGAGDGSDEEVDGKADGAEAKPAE

How the values were obtained:
[1] = biological target: reovirus T3D nonstructural protein σNS (expression plasmid) (reovirus T3D) (UniProt P03526); experiment: affinity purification with mass spectrometry; HeLa cells transfected with both σNS and µNS plasmids, 48 h post-transfection; same lysis buffer; σNS-specific or µNS-specific antibody, protein A Dynabeads; MALDI-ToF MS
[2] = biological target: reovirus T3D nonstructural protein σNS (expression plasmid) (reovirus T3D) (UniProt P03526); experiment: affinity purification with mass spectrometry; HeLa cells transfected with one plasmid only (T3D σNS alone or µNS alone), 48 h post-transfection; same lysis buffer; σNS-specific or µNS-specific antibody, protein A Dynabeads; MALDI-ToF MS

Substance | binding [1] | binding [2]
annexin A2 (from UniProt P07355 1-339) | binds | binds
myosin-9 (from UniProt P35579 1-1960) | binds | binds

Results are given in words; binding and its absence hold for the method and conditions named. In cells and extracts the contact can be indirect. Here binding means that the protein was enriched with, or labelled near, the bait; the list need not be complete.
